# According to PubChem BioAssay (EPA / NIEHS):
# Amino acid sequences for entries named in this document (tags omitted).
# UniProt P04637, whole entry, looked up: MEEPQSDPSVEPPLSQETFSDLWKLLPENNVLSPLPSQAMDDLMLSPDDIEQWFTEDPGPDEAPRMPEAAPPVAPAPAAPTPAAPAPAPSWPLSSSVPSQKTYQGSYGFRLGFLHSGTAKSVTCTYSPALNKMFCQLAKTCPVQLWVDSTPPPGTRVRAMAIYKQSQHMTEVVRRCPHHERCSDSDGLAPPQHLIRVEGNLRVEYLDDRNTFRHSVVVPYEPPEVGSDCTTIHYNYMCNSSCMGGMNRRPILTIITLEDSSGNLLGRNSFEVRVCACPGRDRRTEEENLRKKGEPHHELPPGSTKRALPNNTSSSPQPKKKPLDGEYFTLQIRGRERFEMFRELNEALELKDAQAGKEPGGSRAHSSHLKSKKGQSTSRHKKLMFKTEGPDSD
# Values joined by “and” are separate entries in the source; they are usually repeats but may differ in a detail not shown here. Equal values may be shown once. The shares of active, inactive and inconclusive entries below differ from those in the screen. Potencies beside an inconclusive call are fits to weak or partial responses and may not hold up. Active and inactive are the calls of the source. The calls were made as follows: active = hit-call score of the fitted dose curve at least 0.9, where 1 is the maximum; inconclusive = response in the unintended direction; inactive = score below 0.9. Where a SMILES comes first, the peptide text is derived from it. Bridges are numbered along the chain shown (N, C = ends). [ ]: non-standard residue; d: D form. Orn = NCCC[C@H](N)C(=O)O; Mpa = O=C(O)CCS
# How the values were obtained:
# [1] = TOX21_p53_BLA_p3_viability: Viability Assessment in the Tox21 HCT-116 p53 Agonism Beta-lactamase Assay, Phase 3 (AID 2283593);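 also: cells exposed to compound for 16 h before reading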
# Summary of the method: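 HCT-116 cells (4000/well) rested 5 h at 37C, then got DMSO compounds by pin tool (217-fold dilution) for 16 h at 37C, 5% CO2. After the bla read, CellTiter-Glo was added and luminescence read at 30 min, room temperature.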
# [2] = molecular target: Cellular tumor antigen p53 (Homo sapiens) (UniProt P04637); test: TOX21_p53_BLA_p3_ratio: Tox21 HCT-116 p53 Agonism Beta-lactamase Assay, Ratio, Phase 3 (AID 2283596)
# Summary of the method: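 HCT116 p53-bla cells (4000/well) given compound in DMSO (217-fold dilution) after 5 h, incubated 16 h at 37C. CCF4-AM substrate 2 h at room temperature; 460/530 nm emission ratio, gain fitted against DMSO.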
# [3] = TOX21_p53_BLA_p4_viability: Viability Assessment in the Tox21 HCT-116 p53 Agonism Beta-lactamase Assay, Phase 4 (AID 2283597);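 also: hits lower the luminescence signal meaning cytotoxicity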
# Summary of the method: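 HCT-116 p53-bla cells, 4000/well, dosed after 5 h attachment and incubated 16 h at 37 °C, 5% CO2. Viability from CellTiter-Glo ATP luminescence after 30 min at room temperature, taken after the beta-lactamase read; loss of signal indicates cytotoxicity.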
# [4] = molecular target: Cellular tumor antigen p53 (Homo sapiens) (UniProt P04637); test: TOX21_p53_BLA_p5_ratio: Tox21 HCT-116 p53 Agonism Beta-lactamase Assay, Ratio, Phase 5 (AID 2283599)
# Summary of the method: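 HCT-116 cells carrying a p53-inducible beta-lactamase reporter were seeded at 4000 cells/well and dosed after 5 h with compound in DMSO (217-fold dilution). After 16 h at 37C, CCF4-AM substrate was added for 2 h, and the 460/530 nm emission ratio was scored as gain-of-signal versus DMSO.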
# [5] = TOX21_p53_BLA_p5_viability: Viability Assessment in the Tox21 HCT-116 p53 Agonism Beta-lactamase Assay, Phase 5 (AID 2283600)
# Summary of the method: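 HCT-116 p53 beta-lactamase reporter cells, 4000/well, were exposed to compound (pin transfer, 217-fold dilution) for 16 hours at 37C. Cellular ATP was read by CellTiter-Glo luminescence after 30 min at room temperature.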
# [6] = molecular target: Cellular tumor antigen p53 (Homo sapiens) (UniProt P04637); test: TOX21_p53_BLA_p4_ratio: Tox21 HCT-116 p53 Agonism Beta-lactamase Assay, Ratio, Phase 4 (AID 2283601)
# Summary of the method: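 HCT116 cells carrying an inducible beta-lactamase reporter were plated at 4000 cells/well, rested 5 h, then exposed to compounds in DMSO (217-fold dilution) for 16 h at 37C. CCF4-AM substrate was loaded 2 h at room temperature; 460/530 nm emission ratio scored gain-of-signal versus DMSO.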
# [7] = CCTE_Harrill_HTTr_CellCount_MCF7: CCTE's Cell Proliferation Assessment for the High-Throughput Transcriptomics (HTTr) Platform, Harrill Lab (AID 2284012);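 also: intended direction is loss of nuclei count meaning fewer cells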
# Summary of the method: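 MCF7 cells exposed 6 hours to an eight-point dilution series; Hoechst-stained nuclei counted by high-content imaging. Bidirectional curve fitting against DMSO baseline.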
smiles,measurement,setting,value
C=C(C)C(=O)OCC[N+](C)(C)C,AC50,[1],inconclusive: 45.9 µM
same,AC50,[2],inconclusive: 86.1 µM
same,AC50,[3],inconclusive: 87.8 µM
same,AC50,[4],active: 72.9 µM
same,AC50,[5],inconclusive: 45.9 µM
same,outcome,[6],inactive
CC(C)[N+]1(C)[C@@H]2CC[C@H]1CC(OC(=O)C(CO)c1ccccc1)C2 (stereo partly drawn),AC50,[1],inconclusive: 23 µM
same,outcome,[2],inactive
same,outcome,[3],inactive
same,AC50,[4],inconclusive: 23 µM
Cc1cc(CC(=O)O)c(C)n1-c1ccc(Cl)cc1,outcome,[1],inactive
same,AC50,[2],inconclusive: 23 µM
same,outcome,[3],inactive
NO,AC50,[1],inconclusive: 46.8 µM
same,AC50,[2],inconclusive: 46.8 µM
same,AC50,[3],inconclusive: 46.8 µM
same,AC50,[4],inconclusive: 35.6 µM
same,AC50,[5],inconclusive: 46.8 µM
same,outcome,[6],inactive
CC1(C)S[C@@H]2[C@H](N=CN3CCCCCC3)C(=O)N2[C@H]1C(=O)O,AC50,[1],inconclusive: 23 µM
same,AC50,[2],inconclusive: 23 µM
same,outcome,[3],inactive
same,AC50,[4],inconclusive: 23 µM
same,outcome,[5],inactive
C=C1c2c(Cl)ccc(O)c2C(O)=C2C(=O)[C@]3(O)C(O)=C(C(N)=O)C(=O)[C@@H](N(C)C)[C@@H]3[C@@H](O)[C@H]12,AC50,[1],inconclusive: 10.3 µM
same,AC50,[2],inconclusive: 10.3 µM
same,outcome,[3],inactive
same,AC50,[4],inconclusive: 10.3 µM
same,outcome,[5],inactive
same,AC50,[6],inconclusive: 6.16 µM
O=C(OC1C[C@H]2CC[C@@H](C1)[N+]21CCCC1)C(O)(c1ccccc1)c1ccccc1 (stereo partly drawn),outcome,[1],inactive
same,AC50,[2],inconclusive: 23 µM
same,AC50,[3],inconclusive: 5.9e-05 µM
same,AC50,[4],inconclusive: 23 µM
same,AC50,[5],inconclusive: 23 µM
C[C@@H]1NC(=O)[C@@H](N)CNC(=O)[C@H](C2CCNC(N)=N2)NC(=O)/C(=C/NC(N)=O)NC(=O)[C@H](CNC(=O)C[C@@H](N)CCCN)NC1=O (stereo partly drawn),AC50,[1],inconclusive: 11.5 µM and inconclusive: 23 µM
same,outcome,[2],inactive
same,AC50,[3],inconclusive: 23 µM
same,outcome,[3],inactive
same,AC50,[4],inconclusive: 19.2 µM
O=C(OCCOCCO)c1ccccc1Nc1cccc(C(F)(F)F)c1,AC50,[1],inconclusive: 10.3 µM
same,AC50,[2],inconclusive: 10.3 µM
same,AC50,[3],inconclusive: 0.00334 µM
same,AC50,[4],inconclusive: 10.3 µM
same,AC50,[5],inconclusive: 10.3 µM
same,AC50,[6],inconclusive: 16.6 µM
C[C@@H]1O[C@@H](O[C@@H]2[C@@H](O)[C@H](OCCc3ccc(O)c(O)c3)O[C@H](CO[C@@H]3O[C@H](CO)[C@@H](O)[C@H](O)[C@H]3O)[C@H]2OC(=O)/C=C/c2ccc(O)c(O)c2)[C@H](O)[C@H](O)[C@H]1O,AC50,[1],inconclusive: 0.00802 µM
same,AC50,[2],inconclusive: 44.8 µM
same,outcome,[3],inactive
same,AC50,[4],inconclusive: 44.8 µM
same,outcome,[5],inactive
same,AC50,[6],inconclusive: 44.8 µM
CCOc1ccc(C[C@H]2NC(=O)CCSSC[C@@H](C(=O)N3CCC[C@H]3C(=O)N[C@@H](CCCN)C(=O)NCC(N)=O)NC(=O)[C@H](CC(N)=O)NC(=O)[C@H]([C@@H](C)O)NC(=O)[C@H]([C@@H](C)CC)NC2=O)cc1 ([Mpa][dY](Et)ITNCP[Orn]G-NH2; disulfide 1-6),outcome,[1],inactive
same,AC50,[2],inconclusive: 40.8 µM
same,outcome,[3],inactive
same,AC50,[4],inconclusive: 23 µM
O=C(O)Cn1c(C(=O)Nc2nc(-c3ccccc3Cl)cs2)cc2ccccc21,AC50,[1],inconclusive: 0.0235 µM
same,outcome,[2],inactive
same,AC50,[3],active: 38.9 µM
same,AC50,[4],active: 37.1 µM
same,AC50,[5],active: 40.7 µM
CCOc1cc(OCC)c(C(=O)CCC(=O)O)cc1OCC,AC50,[1],inconclusive: 23 µM
same,AC50,[2],inconclusive: 23 µM
same,outcome,[3],inactive
same,AC50,[4],inconclusive: 43.2 µM
OCCN1CCN(CC/C=C2/c3ccccc3Sc3ccc(Cl)cc32)CC1,outcome,[1],inactive
same,AC50,[2],inconclusive: 10.3 µM
same,outcome,[3],inactive
same,AC50,[4],inconclusive: 17 µM
same,AC50,[5],inconclusive: 10.3 µM
CC(C)CN(C[C@@H](O)[C@H](Cc1ccccc1)NC(=O)O[C@@H]1CCOC1)S(=O)(=O)c1ccc(N)cc1,AC50,[1],inconclusive: 23 µM
same,AC50,[2],inconclusive: 23 µM
same,AC50,[3],inconclusive: 23 µM
same,AC50,[4],inconclusive: 23 µM
same,outcome,[5],inactive
same,AC50,[6],inconclusive: 23 µM
CCOC(=N)CC(=O)OCC,AC50,[1],inconclusive: 46.1 µM
same,AC50,[2],inconclusive: 46.1 µM
same,outcome,[3],inactive
same,AC50,[4],inconclusive: 46.1 µM
same,AC50,[5],inconclusive: 46.1 µM
same,AC50,[7],inconclusive: 50 µM
C[C@@H](O)[C@H]1C(=O)N2C(C(=O)O)=C(SCCN=CN)C[C@H]12,outcome,[1],inactive
same,outcome,[2],inactive
same,outcome,[3],inactive
same,outcome,[4],inactive
same,AC50,[5],inconclusive: 15.3 µM
same,AC50,[6],inconclusive: 10.3 µM

# A run of entries from the list above:
smiles,measurement,setting,value
C=C1c2c(Cl)ccc(O)c2C(O)=C2C(=O)[C@]3(O)C(O)=C(C(N)=O)C(=O)[C@@H](N(C)C)[C@@H]3[C@@H](O)[C@H]12,AC50,[2],inconclusive: 10.3 µM
same,outcome,[3],inactive
same,AC50,[4],inconclusive: 10.3 µM
same,outcome,[5],inactive
